The values below come from article PMC12681554.

Amino acid sequences for entries named in this document (tags omitted). Residues count along the entry.
UniProt P09429: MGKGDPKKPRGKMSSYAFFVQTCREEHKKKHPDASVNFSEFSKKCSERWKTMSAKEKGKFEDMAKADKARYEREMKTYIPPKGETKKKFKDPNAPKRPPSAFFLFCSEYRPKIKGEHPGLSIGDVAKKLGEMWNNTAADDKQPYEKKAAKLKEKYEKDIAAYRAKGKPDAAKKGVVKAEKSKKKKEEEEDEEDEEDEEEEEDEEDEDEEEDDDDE
UniProt O14641: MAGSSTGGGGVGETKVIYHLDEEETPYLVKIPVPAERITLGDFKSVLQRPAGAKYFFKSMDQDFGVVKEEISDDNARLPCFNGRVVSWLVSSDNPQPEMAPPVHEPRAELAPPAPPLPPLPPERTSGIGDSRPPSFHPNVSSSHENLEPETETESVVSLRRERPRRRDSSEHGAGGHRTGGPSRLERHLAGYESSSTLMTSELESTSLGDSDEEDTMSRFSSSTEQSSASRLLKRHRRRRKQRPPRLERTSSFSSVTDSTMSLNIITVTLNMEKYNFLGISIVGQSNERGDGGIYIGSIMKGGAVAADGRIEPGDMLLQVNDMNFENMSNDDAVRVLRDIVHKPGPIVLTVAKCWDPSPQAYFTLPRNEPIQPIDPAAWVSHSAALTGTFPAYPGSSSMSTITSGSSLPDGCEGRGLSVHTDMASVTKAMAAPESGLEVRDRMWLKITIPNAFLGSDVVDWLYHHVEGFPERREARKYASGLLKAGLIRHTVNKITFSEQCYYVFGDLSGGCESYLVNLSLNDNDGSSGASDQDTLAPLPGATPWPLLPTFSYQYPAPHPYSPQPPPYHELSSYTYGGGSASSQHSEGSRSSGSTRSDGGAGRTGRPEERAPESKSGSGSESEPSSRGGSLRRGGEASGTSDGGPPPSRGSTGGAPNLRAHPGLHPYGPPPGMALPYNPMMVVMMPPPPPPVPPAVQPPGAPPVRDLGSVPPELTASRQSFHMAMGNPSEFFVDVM
UniProt O43432: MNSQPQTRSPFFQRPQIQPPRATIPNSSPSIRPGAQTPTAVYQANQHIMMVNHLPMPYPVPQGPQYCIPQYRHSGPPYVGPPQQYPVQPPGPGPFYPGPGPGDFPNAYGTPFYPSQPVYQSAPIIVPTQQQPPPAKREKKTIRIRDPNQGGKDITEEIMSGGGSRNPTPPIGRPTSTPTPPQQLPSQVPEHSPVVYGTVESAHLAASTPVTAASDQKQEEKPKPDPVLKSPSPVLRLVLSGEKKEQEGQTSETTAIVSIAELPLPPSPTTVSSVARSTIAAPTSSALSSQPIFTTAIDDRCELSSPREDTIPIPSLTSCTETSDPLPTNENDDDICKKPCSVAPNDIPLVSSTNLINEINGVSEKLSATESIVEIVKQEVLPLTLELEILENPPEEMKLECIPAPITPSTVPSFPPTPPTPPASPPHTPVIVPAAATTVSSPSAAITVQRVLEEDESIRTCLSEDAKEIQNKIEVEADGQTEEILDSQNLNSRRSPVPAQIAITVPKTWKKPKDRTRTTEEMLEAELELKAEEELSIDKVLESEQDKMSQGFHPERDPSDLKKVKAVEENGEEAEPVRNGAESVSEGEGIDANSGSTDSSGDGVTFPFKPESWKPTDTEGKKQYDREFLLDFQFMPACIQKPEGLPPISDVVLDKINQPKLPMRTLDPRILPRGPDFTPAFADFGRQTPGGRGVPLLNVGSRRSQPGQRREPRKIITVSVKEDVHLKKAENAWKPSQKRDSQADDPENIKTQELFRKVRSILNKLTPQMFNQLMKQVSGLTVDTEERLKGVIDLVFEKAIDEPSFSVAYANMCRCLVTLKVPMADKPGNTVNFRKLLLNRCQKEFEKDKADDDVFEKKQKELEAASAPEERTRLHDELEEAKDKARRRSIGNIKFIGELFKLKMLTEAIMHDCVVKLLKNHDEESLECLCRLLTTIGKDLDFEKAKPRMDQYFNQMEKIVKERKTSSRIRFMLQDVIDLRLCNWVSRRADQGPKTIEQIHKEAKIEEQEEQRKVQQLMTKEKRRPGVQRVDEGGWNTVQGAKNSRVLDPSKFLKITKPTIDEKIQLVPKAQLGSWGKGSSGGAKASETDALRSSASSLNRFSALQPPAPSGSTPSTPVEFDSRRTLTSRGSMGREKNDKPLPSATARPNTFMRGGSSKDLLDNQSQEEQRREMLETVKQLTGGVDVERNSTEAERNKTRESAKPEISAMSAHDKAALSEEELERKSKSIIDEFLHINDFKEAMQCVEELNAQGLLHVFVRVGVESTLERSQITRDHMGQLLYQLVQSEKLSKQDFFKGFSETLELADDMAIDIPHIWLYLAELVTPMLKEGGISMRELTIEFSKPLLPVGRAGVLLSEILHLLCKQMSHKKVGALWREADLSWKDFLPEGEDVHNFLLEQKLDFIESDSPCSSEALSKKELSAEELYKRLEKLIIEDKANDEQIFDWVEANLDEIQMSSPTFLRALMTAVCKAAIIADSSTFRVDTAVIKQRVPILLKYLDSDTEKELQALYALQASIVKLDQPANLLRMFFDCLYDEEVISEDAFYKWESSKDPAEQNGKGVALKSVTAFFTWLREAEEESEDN
UniProt Q03113: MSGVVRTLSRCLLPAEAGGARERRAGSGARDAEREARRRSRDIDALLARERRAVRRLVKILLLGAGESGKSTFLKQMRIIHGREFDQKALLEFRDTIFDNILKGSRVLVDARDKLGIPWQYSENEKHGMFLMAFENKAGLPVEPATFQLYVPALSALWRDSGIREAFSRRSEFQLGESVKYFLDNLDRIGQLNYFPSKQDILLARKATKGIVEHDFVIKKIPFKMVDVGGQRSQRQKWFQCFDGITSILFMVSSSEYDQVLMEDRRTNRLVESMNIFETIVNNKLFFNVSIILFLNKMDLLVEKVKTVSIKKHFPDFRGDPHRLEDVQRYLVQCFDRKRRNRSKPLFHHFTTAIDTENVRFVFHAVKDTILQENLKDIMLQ
UniProt P04792: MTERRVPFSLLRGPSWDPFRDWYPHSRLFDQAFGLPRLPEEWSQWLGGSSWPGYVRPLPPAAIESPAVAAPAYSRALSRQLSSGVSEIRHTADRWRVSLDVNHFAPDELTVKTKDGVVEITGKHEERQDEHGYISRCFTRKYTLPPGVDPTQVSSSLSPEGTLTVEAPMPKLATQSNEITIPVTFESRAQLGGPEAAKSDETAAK
UniProt Q6UB35, residues 32-978: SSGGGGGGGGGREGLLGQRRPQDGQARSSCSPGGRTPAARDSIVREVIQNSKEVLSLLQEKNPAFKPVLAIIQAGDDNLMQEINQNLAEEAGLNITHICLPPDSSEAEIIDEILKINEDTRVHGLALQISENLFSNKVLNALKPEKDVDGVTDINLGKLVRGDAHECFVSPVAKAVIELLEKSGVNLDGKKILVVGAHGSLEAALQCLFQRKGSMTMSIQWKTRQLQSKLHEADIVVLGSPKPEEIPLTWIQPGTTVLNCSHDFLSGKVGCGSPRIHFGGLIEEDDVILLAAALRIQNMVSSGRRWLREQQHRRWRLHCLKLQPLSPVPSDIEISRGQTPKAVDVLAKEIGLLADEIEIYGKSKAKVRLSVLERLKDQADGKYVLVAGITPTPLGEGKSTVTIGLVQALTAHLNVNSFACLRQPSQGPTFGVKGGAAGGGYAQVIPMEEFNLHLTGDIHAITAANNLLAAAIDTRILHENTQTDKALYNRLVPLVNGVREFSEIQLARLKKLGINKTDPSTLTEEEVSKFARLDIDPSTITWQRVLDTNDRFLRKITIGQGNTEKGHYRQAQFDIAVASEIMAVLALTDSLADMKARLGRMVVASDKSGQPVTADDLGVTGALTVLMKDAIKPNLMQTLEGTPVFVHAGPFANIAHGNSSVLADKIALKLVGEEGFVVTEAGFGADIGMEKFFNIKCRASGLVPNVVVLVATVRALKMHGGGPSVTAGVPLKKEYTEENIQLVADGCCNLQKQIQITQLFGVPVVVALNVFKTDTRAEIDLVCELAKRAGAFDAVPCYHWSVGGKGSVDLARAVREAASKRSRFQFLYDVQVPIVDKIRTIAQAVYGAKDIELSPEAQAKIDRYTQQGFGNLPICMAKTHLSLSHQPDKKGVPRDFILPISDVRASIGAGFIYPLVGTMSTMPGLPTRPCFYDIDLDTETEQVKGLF
UniProt Q9BYG3: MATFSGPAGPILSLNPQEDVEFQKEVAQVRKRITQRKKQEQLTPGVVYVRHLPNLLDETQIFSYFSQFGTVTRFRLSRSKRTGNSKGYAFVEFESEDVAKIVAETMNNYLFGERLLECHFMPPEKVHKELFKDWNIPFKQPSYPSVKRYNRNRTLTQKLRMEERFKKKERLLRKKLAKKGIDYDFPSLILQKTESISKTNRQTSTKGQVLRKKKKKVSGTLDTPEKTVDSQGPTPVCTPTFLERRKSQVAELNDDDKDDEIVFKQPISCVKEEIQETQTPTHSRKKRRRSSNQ
UniProt O43399: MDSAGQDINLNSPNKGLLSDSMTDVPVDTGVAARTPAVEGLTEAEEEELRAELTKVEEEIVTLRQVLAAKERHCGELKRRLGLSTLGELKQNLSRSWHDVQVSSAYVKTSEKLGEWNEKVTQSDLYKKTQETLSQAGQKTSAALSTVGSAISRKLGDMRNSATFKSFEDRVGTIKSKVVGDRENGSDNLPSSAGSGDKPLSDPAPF

Read-outs that look alike come from different tables or passages of the source. No constants are given. Whether binding was seen depends on the method and setting. Binding seen in cells or lysates may run through a third protein. A yes stands for co-enrichment or nearness to the bait. Other partners may have been found.

The target of experiment [1] is MycBioID2-HMGB1 (UniProt P09429). As to the kind of experiment: proximity labelling; BioID2: doxycycline-induced MycBioID2-HMGB1 in SILAC-labelled THP-1 cells, biotin 24 h, resting (light) or LPS 100 ng/ml (heavy); lysates pooled 1:1, biotinylated proteins taken on streptavidin Dynabeads, on-bead digestion, LC-MS/MS (n = 3).
The target is the same in experiment [2]. Described as above. The source holds these as a separate data set.

DVL2 (from UniProt O14641 1-736): the binding entry in experiment [1] is “binds”.

On to EIF4G3 (from UniProt O43432 1-1585), for which the binding entry in experiment [1] is listed as “binds”.

Take GNA12 (from UniProt Q03113 1-381): the binding entry in experiment [1] was “binds”.

As to HSPB1 (from UniProt P04792 1-205), the binding result in experiment [1] is reported as “binds”.

For MTHFD1L (from UniProt Q6UB35 32-978), the binding result in experiment [1] is “binds”.

With NIFK (from UniProt Q9BYG3 1-293), in experiment [1], the binding entry is given as “binds”.

For the molecule TPD52L2 (from UniProt O43399 1-206), the binding entry in experiment [1] is reported as “binds”.

B1: CAT (protein, UniProt P04040 1-527)
chain: MADSRDPASDQMQHWKEQRAAQKADVLTTGAGNPVGDKLNVITVGPRGPLLVQDVVFTDEMAHFDRERIPERVVHAKGAGAFGYFEVTHDITKYSKAKVFEHIGKKTPIAVRFSTVAGESGSADTVRDPRGFAVKFYTEDGNWDLVGNNTPIFFIRDPILFPSFIHSQKRNPQTHLKDPDMVWDFWSLRPESLHQVSFLFSDRGIPDGHRHMNGYGSHTFKLVNANGEAVYCKFHYKTDQGIKNLSVEDAARLSQEDPDYGIRDLFNAIATGKYPSWTFYIQVMTFNQAETFPFNPFDLTKVWPHKDYPLIPVGKLVLNRNPVNYFAEVEQIAFDPSNMPPGIEASPDKMLQGRLFAYPDTHRHRLGPNYLHIPVNCPYRARVANYQRDGPMCMQDNQGGAPNYYPNSFGAPEQQPSALEHSIQYSGEVRRFNTANDDNVTQVRAFYVNVLNEEQRKRLCENIAGHLKDAQIFIQKKAVKNFTEVHPDYGSHIQALLDKYNAEKPKNAIHTFVQSGSHLAAREKANL
Regarding B1, the binding result in experiment [2] was “binds”.

B2: CACTIN (protein, UniProt Q8WUQ7 1-758)
chain: MGRDTRSRSRSAGRRGRRRQSQSGSRSRSRSHGRRNRRRREDEGRRRRRRRSRERRSDSEEERWQRSGMRSRSPPRPKWHSRDGSSQSDSGEEQSRGQWARRRRRARSWSPSSSASSSASPGRSQSPRAAAAALSQQQSLQERLRLREERKQQEELMKAFETPEEKRARRLAKKEAKERKKREKMGWGEEYMGYTNTDNPFGDNNLLGTFIWNKALEKKGISHLEEKELKERNKRIQEDNRLELQKVKQLRLEREREKAMREQELEMLQREKEAEHFKTWEEQEDNFHLQQAKLRSKIRIRDGRAKPIDLLAKYISAEDDDLAVEMHEPYTFLNGLTVADMEDLLEDIQVYMELEQGKNADFWRDMTTITEDEISKLRKLEASGKGPGERREGVNASVSSDVQSVFKGKTYNQLQVIFQGIEGKIRAGGPNLDMGYWESLLQQLRAHMARARLRERHQDVLRQKLYKLKQEQGVESEPLFPILKQEPQSPSRSLEPEDAAPTPPGPSSEGGPAEAEVDGATPTEGDGDGDGEGEGEGEAVLMEEDLIQQSLDDYDAGRYSPRLLTAHELPLDAHVLEPDEDLQRLQLSRQQLQVTGDASESAEDIFFRRAKEGMGQDEAQFSVEMPLTGKAYLWADKYRPRKPRFFNRVHTGFEWNKYNQTHYDFDNPPPKIVQGYKFNIFYPDLIDKRSTPEYFLEACADNKDFAILRFHAGPPYEDIAFKIVNREWEYSHRHGFRCQFANGIFQLWFHFKRYRYRR
On to B2, for which the binding result in experiment [2] was “binds”.

B3: HCLS1 (protein, UniProt P14317 1-486)
chain: MWKSVVGHDVSVSVETQGDDWDTDPDFVNDISEKEQRWGAKTIEGSGRTEHINIHQLRNKVSEEHDVLRKKEMESGPKASHGYGGRFGVERDRMDKSAVGHEYVAEVEKHSSQTDAAKGFGGKYGVERDRADKSAVGFDYKGEVEKHTSQKDYSRGFGGRYGVEKDKWDKAALGYDYKGETEKHESQRDYAKGFGGQYGIQKDRVDKSAVGFNEMEAPTTAYKKTTPIEAASSGTRGLKAKFESMAEEKRKREEEEKAQQVARRQQERKAVTKRSPEAPQPVIAMEEPAVPAPLPKKISSEAWPPVGTPPSSESEPVRTSREHPVPLLPIRQTLPEDNEEPPALPPRTLEGLQVEEEPVYEAEPEPEPEPEPEPENDYEDVEEMDRHEQEDEPEGDYEEVLEPEDSSFSSALAGSSGCPAGAGAGAVALGISAVAVYDYQGEGSDELSFDPDDVITDIEMVDEGWWRGRCHGHFGLFPANYVKLLE
For the molecule B3, the binding result in experiment [2] was “binds”.

B4: DVL1 (protein, UniProt O14640 1-695)
chain: MAETKIIYHMDEEETPYLVKLPVAPERVTLADFKNVLSNRPVHAYKFFFKSMDQDFGVVKEEIFDDNAKLPCFNGRVVSWLVLAEGAHSDAGSQGTDSHTDLPPPLERTGGIGDSRPPSFHPNVASSRDGMDNETGTESMVSHRRERARRRNREEAARTNGHPRGDRRRDVGLPPDSASTALSSELESSSFVDSDEDGSTSRLSSSTEQSTSSRLIRKHKRRRRKQRLRQADRASSFSSITDSTMSLNIVTVTLNMERHHFLGISIVGQSNDRGDGGIYIGSIMKGGAVAADGRIEPGDMLLQVNDVNFENMSNDDAVRVLREIVSQTGPISLTVAKCWDPTPRSYFTVPRADPVRPIDPAAWLSHTAALTGALPRYGTSPCSSAVTRTSSSSLTSSVPGAPQLEEAPLTVKSDMSAVVRVMQLPDSGLEIRDRMWLKITIANAVIGADVVDWLYTHVEGFKERREARKYASSLLKHGFLRHTVNKITFSEQCYYVFGDLCSNLATLNLNSGSSGTSDQDTLAPLPHPAAPWPLGQGYPYQYPGPPPCFPPAYQDPGFSYGSGSTGSQQSEGSKSSGSTRSSRRAPGREKERRAAGAGGSGSESDHTAPSGVGSSWRERPAGQLSRGSSPRSQASATAPGLPPPHPTTKAYTVVGGPPGGPPVRELAAVPPELTGSRQSFQKAMGNPCEFFVDIM
On to B4, for which, in experiment [2], the binding entry is on record as “binds”.

B5: TADA2B (protein, UniProt Q86TJ2 1-420)
chain: MAELGKKYCVYCLAEVSPLRFRCTECQDIELCPECFSAGAEIGHHRRYHGYQLVDGGRFTLWGPEAEGGWTSREEQLLLDAIEQFGFGNWEDMAAHVGASRTPQEVMEHYVSMYIHGNLGKACIPDTIPNRVTDHTCPSGGPLSPSLTTPLPPLDISVAEQQQLGYMPLRDDYEIEYDQDAETLISGLSVNYDDDDVEIELKRAHVDMYVRKLKERQRRKNIARDYNLVPAFLGKDKKEKEKALKRKITKEEKELRLKLRPLYQFMSCKEFDDLFENMHKEKMLRAKIRELQRYRRNGITKMEESAEYEAARHKREKRKENKNLAGSKRGKEDGKDSEFAAIENLPGFELLSDREKVLCSSLNLSPARYVTVKTIIIKDHLQKRQGIPSKSRLPSYLDKVLKKRILNFLTESGWISRDAS
In the case of B5, the binding result in experiment [2] was “binds”.
